Laboratory results: PubChem BioAssay AID1224829 (NIAID, 2016)
Screen: 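Secondary check of hits that alter LPS-induced p65 translocation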 (follow-up of hits). System: mouse RAW264.7 G9 macrophage reporter cells. Reagents: single siRNA against mouse genes, 100 nM. Timing: 2 days of siRNA knock-down, then 40 min of LPS before fixing. Treatment: LPS (Salmonella minnesota R595) at 10 ng/ml. Read-out: 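High-content images after 40 min LPS exposure; GFP-p65 nucleus to surrounding ring signal ratio, normalised to plate median and non-targeting control wells, expressed as z-score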. Reading the numbers: p65 translocation z-score: higher = more nuclear NF-kappaB p65 after LPS. Hit rule: 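An siRNA is called active when the mean z-score of its two replicates is above 2 or below -2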. Calls: active = changed p65 translocation (either direction); inactive = no clear change.
In all, the deposit lists about 3,800 reagents; shown is a random part of them. 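Calls cover raised and lowered translocation; gene median uses one vendor's three siRNAs; qiagen siRNAs acted more weakly than ambion siRNAs.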 Unmarked entries are inactive. Reagents against one gene are numbered here. Not all columns of the deposit are shown.

Lyrm2 #1, siRNA vendor or control pool ambion single siRNA — p65 translocation z-score, replicate mean = -0.0549
Lyrm2 #2, siRNA vendor or control pool ambion single siRNA — p65 translocation z-score, replicate mean = -1.2
Lyrm2 #3, siRNA vendor or control pool ambion single siRNA — p65 translocation z-score, replicate mean = -0.828
Lyrm2 #4, siRNA vendor or control pool qiagen single siRNA — p65 translocation z-score, replicate mean = -0.165
Lyrm2 #5, siRNA vendor or control pool qiagen single siRNA — p65 translocation z-score, replicate mean = 0.585
Lyrm2 #6, siRNA vendor or control pool qiagen single siRNA — p65 translocation z-score, replicate mean = -4.81 (active)
Tmem107 #1, siRNA vendor or control pool ambion single siRNA — p65 translocation z-score, replicate mean = 0.885
Tmem107 #2, siRNA vendor or control pool ambion single siRNA — p65 translocation z-score, replicate mean = -1.74
Tmem107 #3, siRNA vendor or control pool ambion single siRNA — p65 translocation z-score, replicate mean = -1.97
Tmem107 #4, siRNA vendor or control pool qiagen single siRNA — p65 translocation z-score, replicate mean = 0.571
Tmem107 #5, siRNA vendor or control pool qiagen single siRNA — p65 translocation z-score, replicate mean = 1.2
Tmem107 #6, siRNA vendor or control pool qiagen single siRNA — p65 translocation z-score, replicate mean = -1.02

Taken from above:
For “p65 translocation z-score, replicate mean”, Tmem107 #4, siRNA vendor or control pool qiagen single siRNA has 0.571
Under “p65 translocation z-score, replicate mean”, Lyrm2 #3, siRNA vendor or control pool ambion single siRNA reads -0.828
Value of Lyrm2 #6, siRNA vendor or control pool qiagen single siRNA under “p65 translocation z-score, replicate mean”: -4.81 (active)

The list goes on.
Fasl #1, siRNA vendor or control pool ambion single siRNA — p65 translocation z-score, replicate mean = -0.618
Fasl #2, siRNA vendor or control pool ambion single siRNA — p65 translocation z-score, replicate mean = -3.86 (active)
Fasl #3, siRNA vendor or control pool ambion single siRNA — p65 translocation z-score, replicate mean = -1.34
Fasl #4, siRNA vendor or control pool qiagen single siRNA — p65 translocation z-score, replicate mean = 2.46 (active)
Fasl #5, siRNA vendor or control pool qiagen single siRNA — p65 translocation z-score, replicate mean = -0.234
Fasl #6, siRNA vendor or control pool qiagen single siRNA — p65 translocation z-score, replicate mean = -0.742
Ca9 #1, siRNA vendor or control pool ambion single siRNA — p65 translocation z-score, replicate mean = 0.36
Ca9 #2, siRNA vendor or control pool ambion single siRNA — p65 translocation z-score, replicate mean = 4.3 (active)
Ca9 #3, siRNA vendor or control pool ambion single siRNA — p65 translocation z-score, replicate mean = -1.89
Ca9 #4, siRNA vendor or control pool qiagen single siRNA — p65 translocation z-score, replicate mean = 1.13
Ca9 #5, siRNA vendor or control pool qiagen single siRNA — p65 translocation z-score, replicate mean = -2.33 (active)
Ca9 #6, siRNA vendor or control pool qiagen single siRNA — p65 translocation z-score, replicate mean = -4.81 (active)
